Some of these results come from one statement about several compounds together. For at least one compound, name, drawing or mass did not settle the structure. Where a SMILES comes first, the peptide text is derived from it. The star is where a group is joined. Cbz = O=C(OCc1ccccc1)*; CH2F = FC*
Tested on: PARP cleavage
Assay: PARP cleavage in Panc-28 cells (Western blot)
Format: cell-based
Conditions: Panc-28, caspase inhibitors (FIG. 6C)

Question: How did the “block of induction of PARP cleavage by Nur77 agonists” value turn out when `COC(=O)C[C@H](NC(=O)[C@H](C)NC(=O)[C@@H](NC(=O)OCc1ccccc1)C(C)C)C(=O)CF` [Z-VAD-FMK] (Cbz-Val-Ala-Asp(OMe)-CH2F) was run?
Answer: 60-90%
